Reference: paper PMC12877406
No constants are given. Whether binding was seen depends on the method and setting. Binding seen in cells or lysates may run through a third protein. These calls come from enrichment with a bait or labelling near it, and not all partners need be listed.

By UniProt entry, the sequences of proteins in these tests, tags left out. Residues count along the entry.
UniProt P46531, residues 19-2555: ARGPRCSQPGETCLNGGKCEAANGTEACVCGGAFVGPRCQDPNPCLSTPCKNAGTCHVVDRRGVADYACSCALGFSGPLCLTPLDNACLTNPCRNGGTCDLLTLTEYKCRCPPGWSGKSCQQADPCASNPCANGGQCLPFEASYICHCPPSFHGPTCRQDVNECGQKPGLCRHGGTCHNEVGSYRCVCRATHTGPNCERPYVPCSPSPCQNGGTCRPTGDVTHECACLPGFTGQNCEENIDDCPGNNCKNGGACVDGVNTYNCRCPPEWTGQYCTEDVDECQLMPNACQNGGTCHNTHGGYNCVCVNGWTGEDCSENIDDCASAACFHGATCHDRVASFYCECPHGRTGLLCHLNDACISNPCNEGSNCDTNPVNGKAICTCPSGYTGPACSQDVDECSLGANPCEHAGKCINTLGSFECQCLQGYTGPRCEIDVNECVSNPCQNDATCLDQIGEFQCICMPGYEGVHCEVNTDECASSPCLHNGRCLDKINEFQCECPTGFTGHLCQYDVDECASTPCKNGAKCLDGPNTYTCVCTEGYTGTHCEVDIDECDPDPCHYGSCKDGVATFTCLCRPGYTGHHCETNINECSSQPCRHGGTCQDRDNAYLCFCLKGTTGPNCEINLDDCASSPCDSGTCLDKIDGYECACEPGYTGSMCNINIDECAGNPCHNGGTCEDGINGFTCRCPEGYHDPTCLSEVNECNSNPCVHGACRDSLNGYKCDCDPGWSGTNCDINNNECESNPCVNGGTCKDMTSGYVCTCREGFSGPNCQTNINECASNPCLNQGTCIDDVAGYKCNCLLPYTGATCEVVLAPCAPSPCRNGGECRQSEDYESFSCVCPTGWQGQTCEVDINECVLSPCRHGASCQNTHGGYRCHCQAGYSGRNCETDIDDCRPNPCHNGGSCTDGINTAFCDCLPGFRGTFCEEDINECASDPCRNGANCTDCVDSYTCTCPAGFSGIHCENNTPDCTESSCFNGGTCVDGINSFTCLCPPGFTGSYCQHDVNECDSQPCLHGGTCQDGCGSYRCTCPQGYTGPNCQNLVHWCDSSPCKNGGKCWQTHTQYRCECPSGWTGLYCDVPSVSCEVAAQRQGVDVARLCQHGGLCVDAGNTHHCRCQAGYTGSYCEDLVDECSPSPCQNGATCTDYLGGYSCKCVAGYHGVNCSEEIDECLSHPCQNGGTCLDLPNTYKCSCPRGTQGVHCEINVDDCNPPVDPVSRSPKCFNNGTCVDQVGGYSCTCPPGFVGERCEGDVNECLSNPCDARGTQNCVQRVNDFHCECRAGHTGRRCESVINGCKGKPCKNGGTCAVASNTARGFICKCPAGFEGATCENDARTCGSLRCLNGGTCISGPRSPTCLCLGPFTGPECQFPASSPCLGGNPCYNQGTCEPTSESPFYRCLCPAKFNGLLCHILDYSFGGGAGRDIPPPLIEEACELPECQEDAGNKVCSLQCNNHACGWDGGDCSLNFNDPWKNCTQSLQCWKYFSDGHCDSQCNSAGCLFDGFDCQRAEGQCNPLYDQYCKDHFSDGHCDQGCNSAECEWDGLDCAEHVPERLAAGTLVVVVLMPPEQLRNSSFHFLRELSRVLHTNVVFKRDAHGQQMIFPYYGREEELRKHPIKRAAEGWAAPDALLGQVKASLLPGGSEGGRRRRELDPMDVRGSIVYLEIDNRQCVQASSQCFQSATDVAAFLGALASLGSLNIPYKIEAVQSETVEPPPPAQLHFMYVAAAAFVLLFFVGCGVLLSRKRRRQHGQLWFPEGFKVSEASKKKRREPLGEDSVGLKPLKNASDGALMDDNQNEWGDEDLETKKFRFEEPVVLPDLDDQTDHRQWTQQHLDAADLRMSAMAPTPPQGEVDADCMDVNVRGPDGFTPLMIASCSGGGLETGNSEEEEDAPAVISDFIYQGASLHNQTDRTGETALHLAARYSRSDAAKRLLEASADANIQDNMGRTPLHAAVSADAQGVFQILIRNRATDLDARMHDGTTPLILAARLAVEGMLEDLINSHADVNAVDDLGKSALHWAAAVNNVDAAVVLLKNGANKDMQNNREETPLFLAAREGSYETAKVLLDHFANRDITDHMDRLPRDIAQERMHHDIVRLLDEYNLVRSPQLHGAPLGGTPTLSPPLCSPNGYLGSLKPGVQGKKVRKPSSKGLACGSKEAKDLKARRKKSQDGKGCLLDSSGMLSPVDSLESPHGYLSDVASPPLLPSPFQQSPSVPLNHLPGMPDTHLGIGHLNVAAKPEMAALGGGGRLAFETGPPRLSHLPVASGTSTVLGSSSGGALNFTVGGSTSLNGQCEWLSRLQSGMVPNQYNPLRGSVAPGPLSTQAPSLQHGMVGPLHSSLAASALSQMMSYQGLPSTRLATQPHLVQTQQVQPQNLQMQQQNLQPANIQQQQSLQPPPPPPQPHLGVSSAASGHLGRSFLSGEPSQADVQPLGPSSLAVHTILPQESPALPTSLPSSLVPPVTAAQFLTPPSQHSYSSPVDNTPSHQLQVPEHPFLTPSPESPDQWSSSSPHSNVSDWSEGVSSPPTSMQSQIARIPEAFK
UniProt P07355: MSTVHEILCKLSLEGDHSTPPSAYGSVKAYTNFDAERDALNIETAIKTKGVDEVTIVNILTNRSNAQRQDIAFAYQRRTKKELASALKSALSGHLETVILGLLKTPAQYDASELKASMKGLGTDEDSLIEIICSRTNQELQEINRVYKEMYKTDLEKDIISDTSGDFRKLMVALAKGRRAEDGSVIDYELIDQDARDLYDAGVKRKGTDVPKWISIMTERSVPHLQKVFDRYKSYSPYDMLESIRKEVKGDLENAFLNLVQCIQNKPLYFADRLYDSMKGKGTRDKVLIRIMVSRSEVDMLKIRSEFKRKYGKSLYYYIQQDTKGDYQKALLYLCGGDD

Biological target: Notch1 (human (endogenous in hdBECs)) (UniProt P46531)
Assay: affinity purification with mass spectrometry; immunoprecipitation of endogenous Notch1 with an anti-Notch1 ICD antibody and Protein A/G beads from hdBEC lysates (static or flow); IP lysis buffer pH 7.4, 25 mM Tris, 150 mM NaCl, 5 mM MgCl2, 1% Triton X-100; SDS-PAGE, Coomassie staining, excised bands analysed by LC-MS/MS

binding: binds
Substance: annexin A2 (from UniProt P07355 1-339)
